In patent US20070203183A1, “Diaryl piperidines as CB1 modulators” (Schering Corporation, priority 2006, published 2007):
Some entries share one result that the patent states for a list of compounds.

The chains behind the UniProt entries cited, without tags or fusion partners.
UniProt P21554, whole entry: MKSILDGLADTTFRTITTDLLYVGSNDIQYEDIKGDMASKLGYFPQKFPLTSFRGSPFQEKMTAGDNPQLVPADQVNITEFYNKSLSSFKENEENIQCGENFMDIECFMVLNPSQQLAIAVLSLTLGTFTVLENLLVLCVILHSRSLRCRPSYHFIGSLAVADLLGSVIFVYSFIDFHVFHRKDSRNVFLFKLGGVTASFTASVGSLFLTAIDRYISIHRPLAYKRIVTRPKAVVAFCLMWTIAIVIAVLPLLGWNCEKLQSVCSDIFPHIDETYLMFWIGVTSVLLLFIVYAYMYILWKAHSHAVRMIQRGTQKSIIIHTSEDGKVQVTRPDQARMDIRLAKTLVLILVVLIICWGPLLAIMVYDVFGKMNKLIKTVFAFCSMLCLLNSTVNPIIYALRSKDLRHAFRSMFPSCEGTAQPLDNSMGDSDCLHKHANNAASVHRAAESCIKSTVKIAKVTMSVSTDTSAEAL

Target: T1, cannabinoid CB1 (Homo sapiens, UniProt P21554)
T1 construct: purchased
Test: Competition binding assay for cannabinoid CB1 affinity (3H-CP55,940 displacement, membranes)
Conditions: competition with 0.5 nM 3H-CP55,940; Ki by Cheng-Prusoff; receptor subtype not given
Description: Method for Evaluating Cannabinoid CB1 and CB2 Affinity
Non-specific binding was defined in the presence of 10 μM CP55,940. For saturation studies, concentrations of ^3H-CP55,940 ranging from 0.1-5 nM were incubated with membranes in the presence and absence of 10 μM CP55,940. Assays were terminated after incubation for 1½ hours by rapid filtration onto 0.3% polyethylenamine treated GF/C filterplates using a BRANDEL cell harvester. The plates were dried and MICROSCINT scintillation cocktail was added, after which the bound radioactivity was quantified using a TOPCOUNT scintillation counter.
The dissociation constant (Kd) of ^3H-CP55,940 at the CB1 and CB2 receptor were determined by plotting specific binding at each concentration of radioligand, and analysis by non-linear regression. For competition studies, the concentration of each drug that inhibited 50 percent of ^3H-CP55,940 binding (IC50) was determined by non-linear regression analysis of the radioligand displacement curves.

SMILES: O=S(=O)(Cc1ccccc1)N[C@@H]1CCN(c2ccc(Cl)cc2Cl)[C@H](c2ccc(Cl)cc2)C1 [Example 135]
- Ki: ≤ 10 nM

SMILES: O=S(=O)(NC[C@@H]1CC[C@@H](c2ccc(Cl)cc2Cl)N(c2ccc(Cl)cc2)C1)c1ccccc1F [Example 123]
- Ki: ≤ 10 nM

SMILES: O=S(=O)(NC[C@@H]1CC[C@@H](c2ccc(Cl)cc2Cl)N(c2ccc(Cl)cc2)C1)c1ccc(Cl)c(Cl)c1 [Example 101]
- Ki: ≤ 10 nM

SMILES: O=S(=O)(NC[C@@H]1CC[C@@H](c2ccc(Cl)cc2Cl)N(c2ccc(Cl)cc2)C1)c1cccc(F)c1 [Example 99]
- Ki: ≤ 10 nM

SMILES: O=S(=O)(NC[C@@H]1CC[C@@H](c2ccc(Cl)cc2Cl)N(c2ccc(Cl)cc2)C1)c1cccc(Cl)c1 [Example 120]
- Ki: ≤ 10 nM

SMILES: O=S(=O)(NC[C@@H]1CC[C@@H](c2ccc(Cl)cc2Cl)N(c2ccc(Cl)cc2)C1)c1cc(F)cc(F)c1 [Example 119]
- Ki: ≤ 10 nM

SMILES: O=S(=O)(NC[C@@H]1CC[C@@H](c2ccc(Cl)cc2Cl)N(c2ccc(Cl)cc2)C1)c1cccc(OC(F)(F)F)c1 [Example 109]
- Ki: ≤ 10 nM

SMILES: Clc1ccc(C2CC(NC3CCCCC3)CCN2c2ccc(Cl)cc2Cl)cc1 (mixture of isomers) [Example 14]
- Ki: ≤ 10 nM

SMILES: O=S(=O)(N[C@@H]1CCN(c2ccc(Cl)cc2Cl)[C@H](c2ccc(Cl)cc2)C1)c1cccc(F)c1 [Example 140]
- Ki: ≤ 10 nM

SMILES: CC(CCc1ccccc1)NC1CCN(c2ccc(Cl)cc2Cl)C(c2ccc(Cl)cc2)C1 (mixture of isomers) [Example 29]
- Ki: ≤ 10 nM

SMILES: CC(NC1CCN(c2ccc(Cl)cc2Cl)C(c2ccc(Cl)cc2)C1)c1ccccc1 (stereo not drawn) [Example 18]
- Ki: ≤ 10 nM

SMILES: Clc1ccc(C2CC(NCc3cc4ccccc4s3)CCN2c2ccc(Cl)cc2Cl)cc1 (mixture of isomers) [Example 52]
- Ki: ≤ 10 nM

SMILES: O=S(=O)(NC[C@@H]1CC[C@@H](c2ccc(Cl)cc2Cl)N(c2ccc(Cl)cc2)C1)c1cccc2ccccc12 [Example 111]
- Ki: ≤ 10 nM

SMILES: O=S(=O)(N[C@@H]1CCN(c2ccc(Cl)cc2Cl)[C@H](c2ccc(Cl)cc2)C1)c1ccc(OC(F)(F)F)cc1 [Example 134]
- Ki: ≤ 10 nM

SMILES: O=S(=O)(NCC1CCC(c2ccc(Cl)cc2Cl)N(c2ccc(Cl)cc2)C1)c1ccc(F)c(Cl)c1 (stereo not drawn) [Example 95]
- Ki: ≤ 10 nM

SMILES: O=S(=O)(N[C@@H]1CCN(c2ccc(Cl)cc2Cl)[C@H](c2ccc(Cl)cc2)C1)c1ccc(C(F)(F)F)cc1 [Example 132]
- Ki: ≤ 10 nM

SMILES: CCC(C)NC1CCN(c2ccc(Cl)cc2Cl)C(c2ccc(Cl)cc2)C1 (mixture of isomers) [Example 9]
- Ki: ≤ 10 nM

SMILES: O=S(=O)(N[C@@H]1CCN(c2ccc(Cl)cc2Cl)[C@H](c2ccc(Cl)cc2)C1)c1ccc(Cl)c(Cl)c1 [Example 147]
- Ki: ≤ 10 nM

SMILES: O=S(=O)(NC[C@@H]1CC[C@@H](c2ccc(Cl)cc2Cl)N(c2ccc(Cl)cc2)C1)c1ccccc1C(F)(F)F [Example 114]
- Ki: ≤ 10 nM

SMILES: N[C@@H]1CCN(c2ccc(Cl)cc2Cl)[C@H](c2ccc(Cl)cc2)C1 [Example 131]
- Ki: ≤ 10 nM

SMILES: Clc1ccc(C2CC(NCc3ccc(Cl)cc3Cl)CCN2c2ccc(Cl)cc2Cl)cc1 (mixture of isomers) [Example 33]
- Ki: ≤ 10 nM

SMILES: O=S(=O)(N[C@@H]1CCN(c2ccc(Cl)cc2Cl)[C@H](c2ccc(Cl)cc2)C1)c1ccccc1 [Example 137]
- Ki: ≤ 10 nM

SMILES: O=S(=O)(NC[C@@H]1CC[C@@H](c2ccc(Cl)cc2Cl)N(c2ccc(Cl)cc2)C1)c1cccc(C(F)(F)F)c1 [Example 117]
- Ki: ≤ 10 nM

SMILES: O=S(=O)(N[C@@H]1CCN(c2ccc(Cl)cc2Cl)[C@H](c2ccc(Cl)cc2)C1)c1cc(Cl)cc(Cl)c1 [Example 133]
- Ki: ≤ 10 nM

SMILES: Cc1cc(O)cc(C)c1C(=O)NC[C@@H]1CC[C@@H](c2ccc(Cl)cc2Cl)N(c2ccc(Cl)cc2)C1 [Example 90]
- Ki: ≤ 10 nM

SMILES: COc1ccc(S(=O)(=O)N[C@@H]2CCN(c3ccc(Cl)cc3Cl)[C@H](c3ccc(Cl)cc3)C2)cc1OC [Example 136]
- Ki: ≤ 10 nM

SMILES: O=S(=O)(NC[C@@H]1CC[C@@H](c2ccc(Cl)cc2Cl)N(c2ccc(Cl)cc2)C1)c1ccc(Cl)cc1Cl [Example 116]
- Ki: ≤ 10 nM

SMILES: O=S(=O)(NC[C@@H]1CC[C@@H](c2ccc(Cl)cc2Cl)N(c2ccc(Cl)cc2)C1)c1ccccc1Cl [Example 98]
- Ki: ≤ 10 nM

SMILES: CC(NC1CCN(c2ccc(Cl)cc2Cl)C(c2ccc(Cl)cc2)C1)c1ccc(Cl)cc1 (stereo not drawn) [Example 31]
- Ki: ≤ 10 nM

SMILES: O=S(=O)(NC[C@@H]1CC[C@@H](c2ccc(Cl)cc2Cl)N(c2ccc(Cl)cc2)C1)c1cc(F)ccc1F [Example 112]
- Ki: ≤ 10 nM

SMILES: Cc1ccc(F)cc1S(=O)(=O)NC[C@@H]1CC[C@@H](c2ccc(Cl)cc2Cl)N(c2ccc(Cl)cc2)C1 [Example 121]
- Ki: ≤ 10 nM

SMILES: O=S(=O)(NC[C@@H]1CC[C@@H](c2ccc(Cl)cc2Cl)N(c2ccc(Cl)cc2)C1)c1ccccc1 [Example 86]
- Ki: ≤ 10 nM

SMILES: O=S(=O)(NC[C@@H]1CC[C@@H](c2ccc(Cl)cc2Cl)N(c2ccc(Cl)cc2)C1)c1ccc(F)cc1F [Example 107]
- Ki: ≤ 10 nM

SMILES: Cc1cccc(S(=O)(=O)NC[C@@H]2CC[C@@H](c3ccc(Cl)cc3Cl)N(c3ccc(Cl)cc3)C2)c1 [Example 108]
- Ki: ≤ 10 nM

SMILES: O=S(=O)(NC[C@@H]1CC[C@@H](c2ccc(Cl)cc2Cl)N(c2ccc(Cl)cc2)C1)c1c(F)cccc1F [Example 97]
- Ki: ≤ 10 nM

SMILES: Clc1ccc(C2CC(NCCc3ccco3)CCN2c2ccc(Cl)cc2Cl)cc1 (mixture of isomers) [Example 51]
- Ki: ≤ 10 nM
